Assay results published in the supplement of paper PMC10849652.
Some of the results follow.

Chains of the proteins cited; added tags and fusions are not shown. Lines headed by an entry give the natural chain unless they say otherwise; changes in a name come on top.
UniProt Q8TDX7: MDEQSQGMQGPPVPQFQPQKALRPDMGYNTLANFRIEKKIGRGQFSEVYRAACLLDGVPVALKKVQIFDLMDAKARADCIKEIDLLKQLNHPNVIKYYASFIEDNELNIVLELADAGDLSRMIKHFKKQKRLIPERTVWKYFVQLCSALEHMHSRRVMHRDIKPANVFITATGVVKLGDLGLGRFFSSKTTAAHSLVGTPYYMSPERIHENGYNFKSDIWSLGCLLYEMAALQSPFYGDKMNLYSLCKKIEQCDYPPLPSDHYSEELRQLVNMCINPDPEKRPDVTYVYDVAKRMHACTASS
UniProt Q8TD19: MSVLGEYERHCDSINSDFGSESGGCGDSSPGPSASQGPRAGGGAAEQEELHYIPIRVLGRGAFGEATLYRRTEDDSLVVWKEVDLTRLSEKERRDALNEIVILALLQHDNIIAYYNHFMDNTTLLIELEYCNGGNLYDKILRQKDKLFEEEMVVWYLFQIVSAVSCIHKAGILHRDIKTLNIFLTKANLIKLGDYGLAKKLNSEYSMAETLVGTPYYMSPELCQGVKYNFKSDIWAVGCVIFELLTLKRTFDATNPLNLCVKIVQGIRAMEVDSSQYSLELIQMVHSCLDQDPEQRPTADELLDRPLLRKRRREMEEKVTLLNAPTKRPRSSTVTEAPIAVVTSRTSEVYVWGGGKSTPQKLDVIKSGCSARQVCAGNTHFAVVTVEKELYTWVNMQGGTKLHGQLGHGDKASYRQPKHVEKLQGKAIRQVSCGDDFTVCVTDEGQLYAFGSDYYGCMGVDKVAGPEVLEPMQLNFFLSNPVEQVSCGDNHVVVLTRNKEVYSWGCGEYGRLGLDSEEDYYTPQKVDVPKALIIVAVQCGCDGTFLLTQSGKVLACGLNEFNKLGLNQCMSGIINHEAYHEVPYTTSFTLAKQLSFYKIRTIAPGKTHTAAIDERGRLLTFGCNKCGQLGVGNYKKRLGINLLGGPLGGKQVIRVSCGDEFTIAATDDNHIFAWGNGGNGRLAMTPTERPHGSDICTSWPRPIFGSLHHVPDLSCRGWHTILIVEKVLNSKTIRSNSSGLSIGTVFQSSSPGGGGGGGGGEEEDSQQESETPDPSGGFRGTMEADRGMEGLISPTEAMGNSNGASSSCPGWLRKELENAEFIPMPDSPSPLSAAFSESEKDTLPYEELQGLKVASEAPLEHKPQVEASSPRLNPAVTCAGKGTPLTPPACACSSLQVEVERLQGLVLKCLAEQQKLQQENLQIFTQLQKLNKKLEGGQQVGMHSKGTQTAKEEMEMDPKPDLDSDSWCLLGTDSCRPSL
UniProt P61916: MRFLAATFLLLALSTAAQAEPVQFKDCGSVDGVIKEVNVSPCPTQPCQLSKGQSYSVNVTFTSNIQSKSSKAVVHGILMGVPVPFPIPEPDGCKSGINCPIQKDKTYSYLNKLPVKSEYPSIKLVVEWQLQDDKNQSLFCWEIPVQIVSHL
UniProt Q9NX24: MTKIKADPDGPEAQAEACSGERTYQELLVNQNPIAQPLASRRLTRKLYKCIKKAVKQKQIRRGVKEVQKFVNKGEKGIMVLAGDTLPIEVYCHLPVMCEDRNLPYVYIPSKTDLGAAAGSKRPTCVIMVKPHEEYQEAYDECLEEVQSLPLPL
UniProt Q9Y3C1: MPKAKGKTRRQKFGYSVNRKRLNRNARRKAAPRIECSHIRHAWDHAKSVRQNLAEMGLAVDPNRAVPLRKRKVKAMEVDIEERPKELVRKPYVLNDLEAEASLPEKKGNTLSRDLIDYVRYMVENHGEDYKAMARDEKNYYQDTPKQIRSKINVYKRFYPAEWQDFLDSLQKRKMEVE
UniProt Q9GZT8: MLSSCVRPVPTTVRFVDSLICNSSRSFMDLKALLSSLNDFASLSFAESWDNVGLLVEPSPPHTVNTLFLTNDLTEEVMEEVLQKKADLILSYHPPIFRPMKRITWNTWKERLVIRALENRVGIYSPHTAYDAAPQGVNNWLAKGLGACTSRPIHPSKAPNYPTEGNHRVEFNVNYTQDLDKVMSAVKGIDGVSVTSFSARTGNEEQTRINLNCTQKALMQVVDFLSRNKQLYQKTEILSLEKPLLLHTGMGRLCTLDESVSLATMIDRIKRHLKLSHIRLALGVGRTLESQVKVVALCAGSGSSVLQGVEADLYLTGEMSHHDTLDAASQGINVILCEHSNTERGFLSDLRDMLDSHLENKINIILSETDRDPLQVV
UniProt Q9UNZ2: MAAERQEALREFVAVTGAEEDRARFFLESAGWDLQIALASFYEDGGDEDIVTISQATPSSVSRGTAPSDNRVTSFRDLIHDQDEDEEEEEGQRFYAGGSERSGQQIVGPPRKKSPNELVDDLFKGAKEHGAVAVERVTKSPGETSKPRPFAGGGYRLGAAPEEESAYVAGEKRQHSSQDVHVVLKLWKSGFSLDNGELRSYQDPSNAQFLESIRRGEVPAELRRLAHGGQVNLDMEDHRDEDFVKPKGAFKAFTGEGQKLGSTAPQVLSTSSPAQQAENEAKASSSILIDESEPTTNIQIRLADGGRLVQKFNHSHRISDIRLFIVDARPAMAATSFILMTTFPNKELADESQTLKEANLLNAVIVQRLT
UniProt Q9UFN0: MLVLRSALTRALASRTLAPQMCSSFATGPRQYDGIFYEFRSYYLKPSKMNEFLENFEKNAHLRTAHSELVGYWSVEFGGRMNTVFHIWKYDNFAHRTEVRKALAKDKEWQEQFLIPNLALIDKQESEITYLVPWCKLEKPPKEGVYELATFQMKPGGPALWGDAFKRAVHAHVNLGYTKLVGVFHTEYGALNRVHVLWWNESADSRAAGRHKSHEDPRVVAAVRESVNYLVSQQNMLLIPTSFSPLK
UniProt P08651, whole entry, looked up: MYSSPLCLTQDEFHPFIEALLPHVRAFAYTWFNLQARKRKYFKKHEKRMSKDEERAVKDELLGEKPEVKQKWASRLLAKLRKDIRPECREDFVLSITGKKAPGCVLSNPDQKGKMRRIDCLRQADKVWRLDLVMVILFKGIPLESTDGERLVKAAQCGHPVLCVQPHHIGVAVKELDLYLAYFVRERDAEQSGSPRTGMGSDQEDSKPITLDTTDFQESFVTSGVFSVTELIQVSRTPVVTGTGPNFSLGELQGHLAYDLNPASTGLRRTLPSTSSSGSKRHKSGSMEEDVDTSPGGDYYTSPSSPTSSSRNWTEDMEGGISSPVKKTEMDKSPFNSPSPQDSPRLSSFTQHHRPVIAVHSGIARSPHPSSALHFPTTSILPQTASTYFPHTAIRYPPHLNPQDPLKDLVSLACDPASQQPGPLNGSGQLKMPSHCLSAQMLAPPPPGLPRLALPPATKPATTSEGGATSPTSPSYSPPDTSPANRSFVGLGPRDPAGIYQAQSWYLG
UniProt Q13232: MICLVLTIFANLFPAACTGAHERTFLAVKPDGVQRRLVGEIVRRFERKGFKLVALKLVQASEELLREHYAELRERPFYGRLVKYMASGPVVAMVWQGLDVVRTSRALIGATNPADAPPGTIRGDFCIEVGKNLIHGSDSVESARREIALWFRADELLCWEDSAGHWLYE
UniProt Q86X76: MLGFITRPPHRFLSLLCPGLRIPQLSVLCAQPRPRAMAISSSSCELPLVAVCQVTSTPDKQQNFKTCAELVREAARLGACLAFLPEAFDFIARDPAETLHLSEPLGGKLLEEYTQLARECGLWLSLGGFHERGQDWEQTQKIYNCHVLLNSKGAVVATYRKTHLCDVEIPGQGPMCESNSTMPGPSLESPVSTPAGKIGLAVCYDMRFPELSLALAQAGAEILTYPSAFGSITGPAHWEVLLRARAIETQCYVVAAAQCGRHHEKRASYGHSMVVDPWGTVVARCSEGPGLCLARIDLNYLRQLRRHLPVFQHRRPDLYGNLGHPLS
UniProt P21359: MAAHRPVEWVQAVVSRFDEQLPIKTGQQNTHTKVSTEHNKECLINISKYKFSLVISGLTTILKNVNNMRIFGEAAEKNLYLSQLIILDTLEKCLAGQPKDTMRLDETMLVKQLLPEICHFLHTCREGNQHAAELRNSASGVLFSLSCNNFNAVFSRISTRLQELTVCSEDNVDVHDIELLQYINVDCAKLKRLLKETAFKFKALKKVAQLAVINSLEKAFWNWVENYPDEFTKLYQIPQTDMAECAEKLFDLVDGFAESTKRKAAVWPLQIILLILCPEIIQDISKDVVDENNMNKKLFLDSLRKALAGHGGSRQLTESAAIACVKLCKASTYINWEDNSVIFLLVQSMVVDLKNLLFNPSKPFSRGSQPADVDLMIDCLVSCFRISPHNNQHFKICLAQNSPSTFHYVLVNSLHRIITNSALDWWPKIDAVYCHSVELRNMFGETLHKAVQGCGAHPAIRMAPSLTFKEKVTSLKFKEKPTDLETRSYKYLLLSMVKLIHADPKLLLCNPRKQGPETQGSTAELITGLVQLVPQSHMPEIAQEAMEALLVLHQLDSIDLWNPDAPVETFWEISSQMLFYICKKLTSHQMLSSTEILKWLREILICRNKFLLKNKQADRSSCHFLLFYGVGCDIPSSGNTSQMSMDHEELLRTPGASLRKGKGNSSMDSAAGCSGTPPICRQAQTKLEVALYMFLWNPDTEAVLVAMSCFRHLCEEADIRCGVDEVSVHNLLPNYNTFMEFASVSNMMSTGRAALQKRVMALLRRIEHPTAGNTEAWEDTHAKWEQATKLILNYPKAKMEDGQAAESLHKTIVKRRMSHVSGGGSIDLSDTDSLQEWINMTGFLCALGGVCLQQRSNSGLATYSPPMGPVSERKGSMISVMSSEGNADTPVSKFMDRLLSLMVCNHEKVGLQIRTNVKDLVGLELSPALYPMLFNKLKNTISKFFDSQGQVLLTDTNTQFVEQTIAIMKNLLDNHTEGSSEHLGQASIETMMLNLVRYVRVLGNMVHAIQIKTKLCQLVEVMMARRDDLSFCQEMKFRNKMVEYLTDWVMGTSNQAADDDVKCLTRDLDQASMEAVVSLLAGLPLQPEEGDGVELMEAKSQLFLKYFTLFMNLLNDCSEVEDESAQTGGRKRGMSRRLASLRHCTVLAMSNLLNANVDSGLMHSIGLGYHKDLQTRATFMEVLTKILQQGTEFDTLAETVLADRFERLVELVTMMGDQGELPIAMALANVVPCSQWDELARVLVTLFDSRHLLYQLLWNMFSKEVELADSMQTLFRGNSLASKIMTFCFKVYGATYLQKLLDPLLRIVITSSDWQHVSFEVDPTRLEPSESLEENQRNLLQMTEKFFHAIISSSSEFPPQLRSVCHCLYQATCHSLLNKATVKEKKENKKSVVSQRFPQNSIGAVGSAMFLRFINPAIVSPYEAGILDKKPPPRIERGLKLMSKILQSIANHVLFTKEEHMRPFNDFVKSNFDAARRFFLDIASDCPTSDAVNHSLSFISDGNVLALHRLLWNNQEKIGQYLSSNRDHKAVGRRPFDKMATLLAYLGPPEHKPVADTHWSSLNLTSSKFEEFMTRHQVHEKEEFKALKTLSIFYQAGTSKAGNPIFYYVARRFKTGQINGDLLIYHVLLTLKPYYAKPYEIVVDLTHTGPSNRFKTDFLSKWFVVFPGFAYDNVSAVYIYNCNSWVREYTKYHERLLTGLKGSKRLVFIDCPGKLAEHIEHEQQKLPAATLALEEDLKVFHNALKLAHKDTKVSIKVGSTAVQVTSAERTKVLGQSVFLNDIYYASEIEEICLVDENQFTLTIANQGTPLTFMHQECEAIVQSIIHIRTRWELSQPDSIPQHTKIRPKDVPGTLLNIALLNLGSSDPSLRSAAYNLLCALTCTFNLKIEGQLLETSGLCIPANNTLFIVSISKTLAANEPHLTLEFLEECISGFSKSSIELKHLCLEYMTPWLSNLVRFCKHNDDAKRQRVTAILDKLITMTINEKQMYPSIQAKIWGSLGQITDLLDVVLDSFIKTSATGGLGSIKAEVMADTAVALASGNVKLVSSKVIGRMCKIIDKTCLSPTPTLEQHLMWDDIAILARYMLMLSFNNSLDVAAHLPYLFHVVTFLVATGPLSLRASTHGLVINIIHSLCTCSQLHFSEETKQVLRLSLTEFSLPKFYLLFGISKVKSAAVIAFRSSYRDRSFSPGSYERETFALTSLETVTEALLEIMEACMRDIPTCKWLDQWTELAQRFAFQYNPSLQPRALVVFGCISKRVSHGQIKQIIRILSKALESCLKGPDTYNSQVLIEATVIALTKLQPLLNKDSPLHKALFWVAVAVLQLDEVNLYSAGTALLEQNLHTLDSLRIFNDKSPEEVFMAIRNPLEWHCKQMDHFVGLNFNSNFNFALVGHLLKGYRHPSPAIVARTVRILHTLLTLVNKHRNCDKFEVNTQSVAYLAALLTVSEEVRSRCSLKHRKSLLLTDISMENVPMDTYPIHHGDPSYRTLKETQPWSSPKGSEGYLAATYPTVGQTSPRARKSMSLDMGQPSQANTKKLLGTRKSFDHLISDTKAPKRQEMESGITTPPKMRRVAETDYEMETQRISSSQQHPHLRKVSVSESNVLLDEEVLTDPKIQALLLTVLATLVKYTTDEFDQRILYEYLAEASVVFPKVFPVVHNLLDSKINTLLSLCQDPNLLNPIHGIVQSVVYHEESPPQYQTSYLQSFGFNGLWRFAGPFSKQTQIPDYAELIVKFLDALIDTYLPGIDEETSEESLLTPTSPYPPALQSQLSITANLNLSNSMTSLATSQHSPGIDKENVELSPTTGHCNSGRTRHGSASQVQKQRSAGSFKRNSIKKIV

Columns and labels:
Assay in all cases: log2 fold change, soluble protein after heating vs DMSO (PISA); higher = thermal stabilisation; K562 cells, 10 uM, 30 min; active = over 0.2 and 3.5 SD of the protein, either way, in both replicates (recomputed)
[1] = compound: COC1=CC=C(C=C1)CN2C=CC3=C2C=C(C=C3)C(=O)NO
Method in brief: (§1)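 K562 cells (2×10^6 cells/mL) were treated with 10 μM compound for 30 min, and aliquots were heated for 3 min over 48°C-58°C. Pooled aliquots were extracted in PBS with 0.5% NP-40 at 4°C, and the supernatant after 21,000xg for 90 min was measured by TMTpro 16plex LC-MS/MS with channel sums equalised. Reported thermal stability, relative to control samples and from duplicates, is a log2 fold change.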

filanesib = compound: CON(C)C(=O)N1N=C(c2cc(F)ccc2F)S[C@@]1(CCCN)c1ccccc1 [filanesib]
Method in brief: as §1

zotarolimus = compound: CO[C@H]1C[C@@H]2CC[C@@H](C)[C@@](O)(O2)C(=O)C(=O)N2CCCC[C@H]2C(=O)O[C@H]([C@H](C)C[C@@H]2CC[C@H](n3cnnn3)[C@H](OC)C2)CC(=O)[C@H](C)/C=C(\C)[C@@H](O)[C@@H](OC)C(=O)[C@H](C)C[C@H](C)/C=C/C=C/C=C/1C [zotarolimus]
Method in brief: as §1

idasanutlin = compound: COc1cc(C(=O)O)ccc1NC(=O)[C@@H]1N[C@@H](CC(C)(C)C)[C@](C#N)(c2ccc(Cl)cc2F)[C@H]1c1cccc(Cl)c1F [idasanutlin]
Method in brief: as §1

alisertib = compound: COc1cc(Nc2ncc3c(n2)-c2ccc(Cl)cc2C(c2c(F)cccc2OC)=NC3)ccc1C(=O)O [alisertib]
Method in brief: as §1

[2] = compound: COc1cc2nc(-c3cc(F)ccc3O)nc(N[C@@H]3CNC[C@H]3C(C)(C)O)c2cc1OC
Method in brief: as §1

gefitinib = compound: COc1cc2ncnc(Nc3ccc(F)c(Cl)c3)c2cc1OCCCN1CCOCC1 [gefitinib]
Method in brief: as §1

[3] = compound: COc1cccc2cc(-c3nc([C@H]4CC[C@H](C(=O)O)CC4)n4ncnc(N)c34)[nH]c12
Method in brief: as §1

lapatinib = compound: CS(=O)(=O)CCNCc1ccc(-c2ccc3ncnc(Nc4ccc(OCc5cccc(F)c5)c(Cl)c4)c3c2)o1 [lapatinib]
Method in brief: as §1

pictilisib = compound: CS(=O)(=O)N1CCN(Cc2cc3nc(-c4cccc5[nH]ncc45)nc(N4CCOCC4)c3s2)CC1 [pictilisib]
Method in brief: as §1

[4] = compound: CS(=O)(=O)c1ccc(-c2cnc(N)c(C(=O)Nc3ccccc3)n2)cc1
Method in brief: as §1

crizotinib = compound: C[C@@H](Oc1cc(-c2cnn(C3CCNCC3)c2)cnc1N)c1c(Cl)ccc(F)c1Cl [crizotinib]
Method in brief: as §1

[5] = compound: C[C@@H]1COCCN1C2=NC(=NC(=C2)C3(CC3)S(=O)(=O)C)C4=C5C=CNC5=CC=C4
Method in brief: as §1

[6] = compound: C[C@H](C1=CC=C(C=C1)C(=O)NC2=C3C=CNC3=NC=C2)N
Method in brief: as §1

duvelisib = compound: C[C@H](Nc1ncnc2nc[nH]c12)c1cc2cccc(Cl)c2c(=O)n1-c1ccccc1 [duvelisib]
Method in brief: as §1

gandotinib = compound: Cc1cc(Nc2cc(CN3CCOCC3)c3nc(C)c(Cc4ccc(Cl)cc4F)n3n2)n[nH]1 [gandotinib]
Method in brief: as §1

tozasertib = compound: Cc1cc(Nc2cc(N3CCN(C)CC3)nc(Sc3ccc(NC(=O)C4CC4)cc3)n2)n[nH]1 [tozasertib]
Method in brief: as §1

[7] = compound: Cc1cc(SCc2sc(-c3ccc(C(F)(F)F)cc3)nc2C)ccc1OCC(=O)O
Method in brief: as §1

doramapimod = compound: Cc1ccc(-n2nc(C(C)(C)C)cc2NC(=O)Nc2ccc(OCCN3CCOCC3)c3ccccc23)cc1 [doramapimod]
Method in brief: as §1

ispinesib = compound: Cc1ccc(C(=O)N(CCCN)[C@@H](c2nc3cc(Cl)ccc3c(=O)n2Cc2ccccc2)C(C)C)cc1 [ispinesib]
Method in brief: as §1

Measured: log2 fold change

NMI (UniProt Q13287)
inactive: [1] -0.016 | filanesib -0.014 | zotarolimus -0.018 | idasanutlin -0.014 | alisertib -0.03 | [2] 0.035 | gefitinib 0.008 | [3] 0.051 | lapatinib -0.022 | pictilisib 0.049 | [4] 0.024 | crizotinib 0.006 | [5] 0.057 | [6] -0.027 | duvelisib 0.017 | gandotinib -0.006 | tozasertib -0.053 | [7] -0.012 | doramapimod 0.02 | ispinesib -0.009

NEK7 (UniProt Q8TDX7)
inactive: [1] -0.07 | filanesib 0.011 | zotarolimus 0.032 | idasanutlin -0.014 | alisertib -0.05 | [2] -0.019 | gefitinib -0.017 | [3] -0.029 | lapatinib 0 | pictilisib -0.067 | [4] -0.034 | crizotinib -0.02 | [5] 0.07 | [6] -0.006 | duvelisib 0.036 | gandotinib -0.036 | tozasertib -0.069 | [7] 0.016 | doramapimod -0.032 | ispinesib -0.001

NEK9 (UniProt Q8TD19)
inactive: [1] 0.022 | filanesib 0.039 | zotarolimus 0.027 | idasanutlin -0.002 | alisertib -0.048 | [2] 0.011 | gefitinib 0 | [3] -0.007 | lapatinib 0.014 | pictilisib 0.038 | [4] 0.053 | crizotinib -0.072 | [5] 0.026 | [6] -0.008 | duvelisib 0.008 | gandotinib -0.024 | tozasertib 0 | [7] 0.003 | doramapimod 0.013 | ispinesib -0.035

NHLRC3 (UniProt Q5JS37)
inactive: [1] 0.073 | filanesib -0.019 | zotarolimus 0.027 | idasanutlin -0.039 | alisertib 0.177 | [2] 0.101 | gefitinib 0.108 | [3] 0.148 | lapatinib -0.025 | pictilisib 0.037 | [4] 0.002 | crizotinib 0.07 | [5] 0.02 | [6] -0.046 | duvelisib 0.083 | gandotinib -0.011 | tozasertib -0.106 | [7] -0.077 | doramapimod 0.035 | ispinesib 0.078

NPC2 (UniProt P61916)
inactive: [1] 0.04 | filanesib -0.09 | zotarolimus -0.059 | idasanutlin 0.018 | alisertib 0.028 | [2] -0.002 | gefitinib 0.031 | [3] -0.028 | lapatinib -0.02 | pictilisib -0.042 | [4] -0.009 | crizotinib 0.011 | [5] 0.018 | [6] -0.047 | duvelisib 0.034 | gandotinib 0.08 | tozasertib 0.03 | [7] -0.045 | doramapimod -0.055 | ispinesib 0.002

NHP2 (UniProt Q9NX24)
inactive: [1] -0.001 | filanesib 0.185 | zotarolimus -0.021 | idasanutlin 0.154 | alisertib -0.118 | [2] 0.008 | gefitinib 0.044 | [3] 0.032 | lapatinib 0.017 | pictilisib -0.038 | [4] -0.13 | crizotinib 0.095 | [5] -0.098 | [6] 0.202 | duvelisib -0.081 | gandotinib 0.076 | tozasertib -0.02 | [7] -0.071 | doramapimod -0.042 | ispinesib 0.066

NONO (UniProt Q15233)
inactive: [1] -0.049 | filanesib 0.293 | zotarolimus 0.099 | idasanutlin 0.306 | alisertib -0.032 | [2] -0.179 | gefitinib 0.156 | [3] -0.113 | lapatinib 0.013 | pictilisib 0.176 | [4] -0.04 | crizotinib 0.007 | [5] -0.094 | [6] 0.28 | duvelisib -0.033 | gandotinib -0.038 | tozasertib 0.153 | [7] 0.055 | doramapimod 0.05 | ispinesib -0.18

NOP16 (UniProt Q9Y3C1)
inactive: [1] -0.036 | filanesib 0.638 | zotarolimus 0.008 | idasanutlin 0.17 | alisertib -0.012 | [2] -0.033 | gefitinib -0.065 | [3] -0.09 | lapatinib 0.174 | pictilisib 0.063 | [4] 0.058 | crizotinib 0.002 | [5] -0.325 | [6] 0.464 | duvelisib -0.15 | gandotinib 0.376 | tozasertib 0.04 | [7] 0.063 | doramapimod 0.27 | ispinesib -0.093

NIF3L1 (UniProt Q9GZT8)
inactive: [1] -0.067 | filanesib 0.041 | zotarolimus -0.019 | idasanutlin 0.036 | alisertib -0.032 | [2] 0.032 | gefitinib -0.021 | [3] 0.054 | lapatinib -0.034 | pictilisib 0.031 | [4] 0.062 | crizotinib 0.078 | [5] -0.02 | [6] -0.032 | duvelisib 0.016 | gandotinib 0.082 | tozasertib -0.03 | [7] -0.052 | doramapimod 0.006 | ispinesib 0.042

NR2F6 (UniProt P10588)
inactive: [1] -0.371 | filanesib -0.081 | zotarolimus 0.066 | idasanutlin -0.069 | alisertib -0.196 | [2] -0.013 | gefitinib -0.205 | [3] -0.029 | lapatinib -0.133 | pictilisib 0.045 | [4] -0.104 | crizotinib -0.023 | [5] 0.123 | [6] -0.107 | duvelisib 0.052 | gandotinib 0.053 | tozasertib -0.081 | [7] -0.086 | doramapimod -0.003 | ispinesib 0.074

NSFL1C isoform 5 (UniProt Q9UNZ2)
inactive: [1] 0.113 | filanesib -0.071 | zotarolimus 0.027 | idasanutlin 0.033 | alisertib -0.036 | [2] -0.023 | gefitinib 0.001 | [3] 0 | lapatinib 0.01 | pictilisib 0.019 | [4] -0.021 | crizotinib 0.014 | [5] 0.049 | [6] -0.008 | duvelisib 0.036 | gandotinib -0.072 | tozasertib 0.032 | [7] 0 | doramapimod 0.012 | ispinesib 0.04

NIPSNAP3A (UniProt Q9UFN0)
inactive: [1] 0.023 | filanesib -0.042 | zotarolimus -0.022 | idasanutlin -0.032 | alisertib -0.021 | [2] -0.016 | gefitinib 0.01 | [3] 0.063 | lapatinib 0.013 | pictilisib -0.003 | [4] 0.021 | crizotinib 0.043 | [5] 0.01 | [6] -0.067 | duvelisib -0.008 | gandotinib 0.047 | tozasertib 0 | [7] -0.06 | doramapimod -0.002 | ispinesib -0.026

NFIC (UniProt P08651)
inactive: [1] -0.037 | filanesib 0.093 | zotarolimus -0.054 | idasanutlin 0.032 | alisertib -0.045 | [2] -0.038 | gefitinib -0.004 | [3] 0.008 | lapatinib 0.047 | pictilisib -0.029 | [4] -0.02 | crizotinib 0.034 | [5] -0.007 | [6] 0.032 | duvelisib 0.1 | gandotinib 0.079 | tozasertib 0.009 | [7] -0.084 | doramapimod 0.036 | ispinesib -0.052

NME3 (UniProt Q13232)
inactive: [1] -0.014 | filanesib -0.124 | zotarolimus -0.054 | idasanutlin -0.064 | alisertib -0.05 | [2] 0.005 | gefitinib 0 | [3] 0.036 | lapatinib -0.007 | pictilisib 0.015 | [4] 0.021 | crizotinib 0.063 | [5] -0.01 | [6] 0.016 | duvelisib 0.012 | gandotinib -0.019 | tozasertib -0.02 | [7] -0.043 | doramapimod -0.025 | ispinesib 0.053

NIT1 (UniProt Q86X76)
inactive: [1] 0.068 | filanesib 0.015 | zotarolimus 0.007 | idasanutlin -0.055 | alisertib -0.012 | [2] -0.014 | gefitinib 0.024 | [3] -0.003 | lapatinib 0.027 | pictilisib 0.028 | [4] 0.023 | crizotinib 0.095 | [5] 0.046 | [6] -0.013 | duvelisib 0.042 | gandotinib -0.012 | tozasertib -0.024 | [7] -0.025 | doramapimod -0.042 | ispinesib 0

NF1 (UniProt P21359)
inactive: [1] -0.278 | filanesib 0.171 | zotarolimus -0.12 | idasanutlin -0.074 | alisertib 0.09 | [2] 0.245 | gefitinib 0.046 | [3] 0.006 | lapatinib -0.327 | pictilisib 0.163 | [4] 0.058 | crizotinib 0 | [5] 0.015 | [6] -0.018 | duvelisib 0.069 | gandotinib -0.052 | tozasertib 0 | [7] 0.021 | doramapimod 0 | ispinesib 0.063
